# In the supplement of paper PMC6411743:
# The chains behind the UniProt entries cited, without tags or fusion partners. Where a name states a change or a piece, a line headed by the entry shows the natural chain unless it says otherwise.
# UniProt Q96T51: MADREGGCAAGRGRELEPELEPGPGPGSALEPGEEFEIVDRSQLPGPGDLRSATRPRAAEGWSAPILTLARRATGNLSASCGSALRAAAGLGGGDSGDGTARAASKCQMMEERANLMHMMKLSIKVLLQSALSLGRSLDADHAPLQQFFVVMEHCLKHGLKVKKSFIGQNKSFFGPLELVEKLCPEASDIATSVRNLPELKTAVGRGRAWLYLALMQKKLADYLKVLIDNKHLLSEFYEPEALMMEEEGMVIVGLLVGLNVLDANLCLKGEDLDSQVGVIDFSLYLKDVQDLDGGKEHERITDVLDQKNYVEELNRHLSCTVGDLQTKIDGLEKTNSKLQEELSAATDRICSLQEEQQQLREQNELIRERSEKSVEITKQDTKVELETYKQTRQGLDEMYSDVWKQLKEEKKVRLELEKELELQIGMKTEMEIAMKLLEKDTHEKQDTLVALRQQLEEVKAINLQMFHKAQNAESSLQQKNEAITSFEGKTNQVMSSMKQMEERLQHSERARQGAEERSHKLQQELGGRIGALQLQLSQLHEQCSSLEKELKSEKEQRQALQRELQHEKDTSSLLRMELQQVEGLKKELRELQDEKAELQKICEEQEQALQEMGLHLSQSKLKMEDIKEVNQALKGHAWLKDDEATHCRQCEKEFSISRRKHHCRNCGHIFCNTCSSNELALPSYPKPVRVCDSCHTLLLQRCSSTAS
# UniProt Q96SB3: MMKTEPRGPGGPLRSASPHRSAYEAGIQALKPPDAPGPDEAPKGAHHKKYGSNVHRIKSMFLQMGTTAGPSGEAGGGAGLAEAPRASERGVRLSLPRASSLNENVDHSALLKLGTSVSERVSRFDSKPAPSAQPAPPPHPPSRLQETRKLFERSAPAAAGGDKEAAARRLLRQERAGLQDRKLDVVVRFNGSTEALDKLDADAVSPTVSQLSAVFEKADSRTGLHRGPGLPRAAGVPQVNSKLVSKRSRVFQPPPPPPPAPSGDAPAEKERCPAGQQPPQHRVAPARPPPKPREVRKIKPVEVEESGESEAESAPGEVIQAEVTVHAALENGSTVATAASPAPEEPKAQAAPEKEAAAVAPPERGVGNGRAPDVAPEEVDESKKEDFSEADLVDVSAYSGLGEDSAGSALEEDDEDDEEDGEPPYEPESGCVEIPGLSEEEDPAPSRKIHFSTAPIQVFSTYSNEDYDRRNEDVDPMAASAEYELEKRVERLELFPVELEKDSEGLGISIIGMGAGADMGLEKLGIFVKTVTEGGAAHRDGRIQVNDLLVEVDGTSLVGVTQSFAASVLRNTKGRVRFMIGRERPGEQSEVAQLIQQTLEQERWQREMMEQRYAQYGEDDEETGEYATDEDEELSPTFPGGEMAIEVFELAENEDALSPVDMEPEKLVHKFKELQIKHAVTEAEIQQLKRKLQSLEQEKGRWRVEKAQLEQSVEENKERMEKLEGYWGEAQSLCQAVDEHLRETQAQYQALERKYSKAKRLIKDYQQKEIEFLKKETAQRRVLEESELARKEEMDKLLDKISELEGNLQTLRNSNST
# UniProt Q96HR9: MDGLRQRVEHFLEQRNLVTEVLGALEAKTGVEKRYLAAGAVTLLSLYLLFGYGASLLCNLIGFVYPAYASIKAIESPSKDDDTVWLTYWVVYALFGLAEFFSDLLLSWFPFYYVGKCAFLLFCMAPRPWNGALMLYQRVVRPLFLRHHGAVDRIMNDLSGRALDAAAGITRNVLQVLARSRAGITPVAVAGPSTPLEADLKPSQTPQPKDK
# UniProt Q96GY3: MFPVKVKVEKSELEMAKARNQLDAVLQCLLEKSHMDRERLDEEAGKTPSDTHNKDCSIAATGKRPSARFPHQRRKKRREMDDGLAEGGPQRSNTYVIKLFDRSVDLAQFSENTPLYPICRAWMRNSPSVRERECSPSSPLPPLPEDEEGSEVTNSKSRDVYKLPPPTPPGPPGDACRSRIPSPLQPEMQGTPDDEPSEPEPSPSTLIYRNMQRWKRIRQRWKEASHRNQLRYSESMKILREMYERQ
# UniProt Q96CX6, whole entry: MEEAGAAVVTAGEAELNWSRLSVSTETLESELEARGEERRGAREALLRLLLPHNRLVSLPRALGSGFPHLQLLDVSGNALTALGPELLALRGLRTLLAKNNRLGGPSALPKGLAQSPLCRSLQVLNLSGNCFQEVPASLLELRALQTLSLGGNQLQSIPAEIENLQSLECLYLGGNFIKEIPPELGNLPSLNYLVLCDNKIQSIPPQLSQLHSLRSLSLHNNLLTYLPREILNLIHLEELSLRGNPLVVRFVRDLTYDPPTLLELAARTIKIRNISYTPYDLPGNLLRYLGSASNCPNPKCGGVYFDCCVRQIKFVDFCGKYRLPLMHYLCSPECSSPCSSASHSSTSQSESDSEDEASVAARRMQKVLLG
# UniProt Q96GW9: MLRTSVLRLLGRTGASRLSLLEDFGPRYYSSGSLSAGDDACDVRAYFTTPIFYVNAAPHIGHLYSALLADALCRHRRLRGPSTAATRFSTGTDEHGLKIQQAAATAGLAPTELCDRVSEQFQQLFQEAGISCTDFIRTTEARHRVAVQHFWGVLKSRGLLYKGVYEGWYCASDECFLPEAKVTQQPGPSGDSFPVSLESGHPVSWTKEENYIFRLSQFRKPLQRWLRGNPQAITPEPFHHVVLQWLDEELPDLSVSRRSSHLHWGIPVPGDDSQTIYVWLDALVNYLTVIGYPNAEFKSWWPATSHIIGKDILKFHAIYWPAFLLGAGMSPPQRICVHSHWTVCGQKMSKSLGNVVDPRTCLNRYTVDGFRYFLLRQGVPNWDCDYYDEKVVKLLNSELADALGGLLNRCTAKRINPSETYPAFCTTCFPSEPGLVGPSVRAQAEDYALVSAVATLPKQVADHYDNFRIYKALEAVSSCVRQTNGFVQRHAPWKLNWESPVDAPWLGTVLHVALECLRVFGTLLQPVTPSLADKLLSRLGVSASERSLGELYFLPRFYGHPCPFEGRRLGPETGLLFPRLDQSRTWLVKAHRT
# UniProt Q96G23: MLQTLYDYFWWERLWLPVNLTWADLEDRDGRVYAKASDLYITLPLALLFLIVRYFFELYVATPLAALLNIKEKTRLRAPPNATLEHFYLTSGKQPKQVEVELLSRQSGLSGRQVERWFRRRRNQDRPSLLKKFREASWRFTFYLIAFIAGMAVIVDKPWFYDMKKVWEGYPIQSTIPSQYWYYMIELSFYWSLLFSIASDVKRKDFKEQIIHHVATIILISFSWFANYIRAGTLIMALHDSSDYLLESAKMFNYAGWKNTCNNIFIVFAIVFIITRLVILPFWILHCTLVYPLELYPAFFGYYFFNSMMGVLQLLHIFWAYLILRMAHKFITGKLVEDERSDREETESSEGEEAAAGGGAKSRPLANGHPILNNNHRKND
# UniProt Q96CX2: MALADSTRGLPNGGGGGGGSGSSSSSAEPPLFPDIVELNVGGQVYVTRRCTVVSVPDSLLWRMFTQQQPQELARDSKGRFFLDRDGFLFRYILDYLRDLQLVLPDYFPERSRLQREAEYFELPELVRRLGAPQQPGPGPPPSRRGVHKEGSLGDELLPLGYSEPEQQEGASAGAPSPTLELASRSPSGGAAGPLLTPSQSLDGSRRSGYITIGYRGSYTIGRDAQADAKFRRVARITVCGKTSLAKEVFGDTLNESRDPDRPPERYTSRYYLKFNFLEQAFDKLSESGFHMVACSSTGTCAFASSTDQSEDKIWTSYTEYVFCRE
# UniProt Q96KA5: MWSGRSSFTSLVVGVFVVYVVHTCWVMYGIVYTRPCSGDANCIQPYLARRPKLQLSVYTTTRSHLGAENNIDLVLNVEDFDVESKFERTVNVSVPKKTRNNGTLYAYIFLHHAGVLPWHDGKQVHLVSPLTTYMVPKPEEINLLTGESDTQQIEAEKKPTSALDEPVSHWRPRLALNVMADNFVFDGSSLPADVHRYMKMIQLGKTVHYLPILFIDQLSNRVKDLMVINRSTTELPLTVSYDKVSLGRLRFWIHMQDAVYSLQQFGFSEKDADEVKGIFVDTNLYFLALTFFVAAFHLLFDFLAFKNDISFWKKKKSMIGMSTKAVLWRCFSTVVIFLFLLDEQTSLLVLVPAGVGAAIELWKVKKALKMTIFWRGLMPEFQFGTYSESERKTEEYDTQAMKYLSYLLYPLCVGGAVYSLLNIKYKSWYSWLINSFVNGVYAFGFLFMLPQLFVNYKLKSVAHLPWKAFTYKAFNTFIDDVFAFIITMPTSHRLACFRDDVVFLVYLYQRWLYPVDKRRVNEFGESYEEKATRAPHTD
# UniProt Q96PU4: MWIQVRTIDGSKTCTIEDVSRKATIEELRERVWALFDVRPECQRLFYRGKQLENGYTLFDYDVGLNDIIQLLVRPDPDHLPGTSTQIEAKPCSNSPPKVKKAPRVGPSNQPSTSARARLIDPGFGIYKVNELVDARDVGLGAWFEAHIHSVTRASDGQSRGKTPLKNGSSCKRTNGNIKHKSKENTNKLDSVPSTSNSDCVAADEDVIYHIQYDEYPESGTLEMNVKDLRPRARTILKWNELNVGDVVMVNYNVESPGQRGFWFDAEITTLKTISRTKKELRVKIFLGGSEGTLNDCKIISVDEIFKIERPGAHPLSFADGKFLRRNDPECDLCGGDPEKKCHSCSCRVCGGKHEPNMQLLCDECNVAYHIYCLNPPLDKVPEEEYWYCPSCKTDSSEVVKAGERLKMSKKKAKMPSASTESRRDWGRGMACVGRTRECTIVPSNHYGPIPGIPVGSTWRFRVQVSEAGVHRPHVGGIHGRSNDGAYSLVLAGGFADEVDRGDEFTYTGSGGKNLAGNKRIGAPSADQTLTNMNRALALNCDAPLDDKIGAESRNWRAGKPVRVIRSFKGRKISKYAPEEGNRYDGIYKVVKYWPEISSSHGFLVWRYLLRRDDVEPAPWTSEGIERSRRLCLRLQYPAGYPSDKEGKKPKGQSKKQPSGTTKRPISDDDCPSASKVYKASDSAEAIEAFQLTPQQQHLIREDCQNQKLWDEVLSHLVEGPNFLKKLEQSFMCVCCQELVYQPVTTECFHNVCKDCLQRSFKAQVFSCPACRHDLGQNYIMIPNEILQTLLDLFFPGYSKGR
# UniProt Q96CD0: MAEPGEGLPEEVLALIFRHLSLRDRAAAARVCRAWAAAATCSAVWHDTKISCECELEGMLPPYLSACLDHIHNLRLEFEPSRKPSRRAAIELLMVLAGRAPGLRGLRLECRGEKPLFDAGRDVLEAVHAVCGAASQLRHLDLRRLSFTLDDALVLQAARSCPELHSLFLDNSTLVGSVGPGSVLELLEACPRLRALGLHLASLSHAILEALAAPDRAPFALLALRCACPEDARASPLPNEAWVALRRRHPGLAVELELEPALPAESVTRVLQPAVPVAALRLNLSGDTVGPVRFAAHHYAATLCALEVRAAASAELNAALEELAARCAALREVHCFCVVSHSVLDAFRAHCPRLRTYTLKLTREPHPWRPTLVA
# UniProt Q96GS4: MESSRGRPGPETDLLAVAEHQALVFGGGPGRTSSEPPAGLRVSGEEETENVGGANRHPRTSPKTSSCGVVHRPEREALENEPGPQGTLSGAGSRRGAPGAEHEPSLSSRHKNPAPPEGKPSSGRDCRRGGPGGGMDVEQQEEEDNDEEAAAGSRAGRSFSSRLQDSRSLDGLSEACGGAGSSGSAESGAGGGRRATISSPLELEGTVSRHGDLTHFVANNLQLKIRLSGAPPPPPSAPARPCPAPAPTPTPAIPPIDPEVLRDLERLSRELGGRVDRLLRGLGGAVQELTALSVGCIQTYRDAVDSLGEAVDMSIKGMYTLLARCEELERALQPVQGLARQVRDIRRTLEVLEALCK
# UniProt Q96F63: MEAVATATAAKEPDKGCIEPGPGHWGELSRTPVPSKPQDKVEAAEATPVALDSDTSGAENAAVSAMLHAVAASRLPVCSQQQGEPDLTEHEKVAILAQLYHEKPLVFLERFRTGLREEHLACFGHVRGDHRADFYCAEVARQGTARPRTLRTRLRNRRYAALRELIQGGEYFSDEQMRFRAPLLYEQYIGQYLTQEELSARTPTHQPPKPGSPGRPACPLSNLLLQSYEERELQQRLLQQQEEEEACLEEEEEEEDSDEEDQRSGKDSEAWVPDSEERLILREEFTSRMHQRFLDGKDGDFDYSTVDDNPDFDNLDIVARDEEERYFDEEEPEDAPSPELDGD
# UniProt Q96E29: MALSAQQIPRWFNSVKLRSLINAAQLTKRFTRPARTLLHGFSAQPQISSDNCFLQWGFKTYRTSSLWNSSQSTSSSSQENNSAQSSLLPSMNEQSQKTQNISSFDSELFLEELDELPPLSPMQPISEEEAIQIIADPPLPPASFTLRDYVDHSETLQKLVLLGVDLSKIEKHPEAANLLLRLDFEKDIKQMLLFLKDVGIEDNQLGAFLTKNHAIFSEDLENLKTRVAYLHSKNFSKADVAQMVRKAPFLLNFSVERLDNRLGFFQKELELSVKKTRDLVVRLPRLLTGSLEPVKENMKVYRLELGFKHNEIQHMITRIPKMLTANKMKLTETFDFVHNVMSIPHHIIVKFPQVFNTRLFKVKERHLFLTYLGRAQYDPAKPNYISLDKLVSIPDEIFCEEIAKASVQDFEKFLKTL
# ± gives the standard deviation of the averaged measurements. This is a selection; strong and weak results do not stand in their true shares. Small differences around the control level are noise.
# Compound: Nc1ncnc2c1ncn2[C@@H]1O[C@H](COP(=O)(O)OP(=O)(O)OP(=O)(O)O)[C@@H](O)[C@H]1O [adenosine triphosphate]
# Test: NP40-soluble protein abundance relative to vehicle (solubility fold change) (ratio); higher = more soluble protein in presence of ATP
# Details: concentration: 0.5mM
# How it was run: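 Eight concentrations, 0.1 to 10 mM, were tested on Jurkat crude lysate for 10 min at room temperature and then 3 min at 37 °C, in three independent experiments. The lysate was solubilised with 0.8% NP40 and benzonase, ultracentrifuged, and the supernatant TMT-labelled for LC-MS/MS. Each value is the fold change against the detergent-processed vehicle in its own replicate, from vsn-normalised intensities.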
row,Target,NP40-soluble protein abundance
1,UniProt Q96S19 and related entries,0.996 ± 0.051
2,UniProt Q96T37-3|A0A087WWP4|Q96T37 and related entries,1.06 ± 0.027
3,RSPRY1 (UniProt Q96DX4),1.1 ± 0.12
4,UniProt Q96G28,0.941 ± 0.029
5,GCC1 (UniProt Q96CN9),0.977 ± 0.059
6,UniProt Q96J84 and related entries,0.938 ± 0.099
7,UniProt Q96GY0,0.874 ± 0.061
8,UniProt Q96GX5 and related entries,1.01 ± 0.05
9,GNPNAT1 (UniProt Q96EK6),1.06 ± 0.047
10,DDRGK1 (UniProt Q96HY6),0.949 ± 0.056
11,UniProt Q96Q42 and related entries,1.25 ± 0.18
12,RUFY1 (UniProt Q96T51),1.02 ± 0.045
13,UniProt Q96SB3 and related entries,0.865 ± 0.12
14,UniProt Q96P47 and related entries,1.06 ± 0.097
15,REEP6 (UniProt Q96HR9),0.951 ± 0.087
16,LIN37 (UniProt Q96GY3),0.952 ± 0.037
17,DUS3L (UniProt Q96G46),1.05 ± 0.062
18,LRRC58 (UniProt Q96CX6),0.953 ± 0.033
19,CCDC127 (UniProt Q96BQ5),0.905 ± 0.16

row,Target,NP40-soluble protein abundance
1,MARS2 (UniProt Q96GW9),0.971 ± 0.063
2,UniProt Q96L92 and related entries,1.01 ± 0.051
3,DHTKD1 (UniProt Q96HY7),1.03 ± 0.043
4,PRMT6 (UniProt Q96LA8),1 ± 0.017
5,UniProt Q96G23,0.976 ± 0.066
6,KCTD12 (UniProt Q96CX2),0.9655 ± 0.0054
7,UniProt Q96KA5 and related entries,1 ± 0.066
8,NUDCD1 (UniProt Q96RS6),1.06 ± 0.052
9,MMAB (UniProt Q96EY8),0.954 ± 0.012
10,UHRF2 (UniProt Q96PU4),1.04 ± 0.035
11,FBXL8 (UniProt Q96CD0),0.994 ± 0.11
12,UniProt Q96GS4,0.916 ± 0.064
13,UniProt Q96IJ6 and related entries,1.04 ± 0.032
14,CCDC97 (UniProt Q96F63),0.932 ± 0.033
15,PANX1 (UniProt Q96RD7),0.968 ± 0.069
16,UniProt Q96E29 and related entries,1.09 ± 0.062
17,UniProt Q96MG7,0.977 ± 0.025
18,MRPL53 (UniProt Q96EL3),0.875 ± 0.13
19,UniProt Q96KQ4,0.984 ± 0.043

# Retrieved one by one from the list above (2):
row,Target,NP40-soluble protein abundance
2,UniProt Q96T37-3|A0A087WWP4|Q96T37 and related entries,1.06 ± 0.027
4,UniProt Q96G28,0.941 ± 0.029
